Measured data: PubChem BioAssay AID720505 (Drosophila RNAi Screening Center, 2013)

Aim: 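Knock-downs that reduce calcium influx once internal stores are emptied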 (primary screen)
Cell system: Drosophila S2R+ cells
Reagent: long dsRNA against Drosophila genes
Conditions: thapsigargin (2 µM) in calcium-free buffer to empty internal stores, then 2 mM calcium added back
Measurement: 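Fluo-4 signal in 384-well plates read on a FLIPR after thapsigargin (2 µM, calcium-free) store depletion and 2 mM calcium add-back; unnormalised mean endpoint per well; screen run twice, selected wells retested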
Direction: calcium signal and retest calcium signal: higher = more calcium entry after store depletion
Call rule: 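About 1500 genes called as lowering calcium entry, by varying amounts, judged against per-plate control wells with STIM1 as positive and Rho1 as negative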
Meaning of the calls: active = called as lowering calcium entry; inactive = not called
The screen tested about 20,000 reagents; shown is an unselected part of those that have a named target and a result. In the full data, about 2,100 (10%) are marked active. 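Raw plate signals without normalisation; calls rest on control-based scores that were not deposited; replicate 2 separates called from uncalled poorly.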 A plus sign joins genes that one reagent is predicted to hit. The record does not give: the amount of reagent, the time to read-out.

| calcium signal, replicate 1 | calcium signal, replicate 2 | retest calcium signal, replicate 1 | retest calcium signal, replicate 2 | Call | gene knocked down | amplicon |
| --- | --- | --- | --- | --- | --- | --- |
| 118 | 125 | – | – | inactive | Tsp74F (Tetraspanin 74F) | DRSC10508 |
| 91 | 71.5 | – | – | inactive | byn (brachyenteron) | DRSC11332 |
| 301 | 96.5 | – | – | inactive | Ca-alpha1T (Ca[2+]-channel protein alpha[[1]] subunit T) | DRSC17842 |
| 238 | 111 | 6552 | 148 | inactive | Ca-alpha1T (Ca[2+]-channel protein alpha[[1]] subunit T) | DRSC18103 |
| 221 | 125 | – | – | inactive | Ca-alpha1T (Ca[2+]-channel protein alpha[[1]] subunit T) | DRSC18356 |
| 69.8 | 236 | – | – | active | Ca-alpha1T (Ca[2+]-channel protein alpha[[1]] subunit T) | DRSC18357 |
| 140 | 86.7 | – | – | inactive | Ca-alpha1T (Ca[2+]-channel protein alpha[[1]] subunit T) | DRSC21430 |
| 116 | 161 | – | – | inactive | rudhira | DRSC19821 |
| 85.4 | 235 | – | – | inactive | rudhira | DRSC22111 |
| 138 | 163 | – | – | inactive | rudhira | DRSC23144 |
| 110 | 136 | – | – | inactive | CG4186 | DRSC11753 |
| 124 | 141 | – | – | inactive | Gpxl (Glutathione peroxidase-like) | DRSC06538 |
| 91.2 | 103 | – | – | inactive | Elp4 (Elongator complex protein 4) | DRSC02999 |
| 97 | 102 | – | – | inactive | jhamt (juvenile hormone acid methyltransferase) | DRSC01985 |
| 96.6 | 105 | – | – | inactive | Edem1 (ER degradation enhancer, mannosidase alpha-like 1) | DRSC18573 |
| 126 | 150 | – | – | inactive | sgll (sugarlethal) | DRSC15442 |
| 91.9 | 7108 | – | – | inactive | Gr22e (Gustatory receptor 22e) | DRSC20912 |
| 48.3 | 98.8 | – | – | active | Prosbeta4 (Proteasome beta4 subunit) | DRSC02603 |
| 108 | 158 | – | – | inactive | CG31548 | DRSC22640 |
| 68.1 | 97.2 | – | – | active | CR15280 (pseudo) | DRSC01953 |
| 235 | 96.4 | – | – | inactive | CG6978 | DRSC18409 |
| 123 | 125 | – | – | inactive | Tbce (Tubulin-binding cofactor E) | DRSC04897 |
| 83.4 | 134 | – | – | inactive | yellow-e2 | DRSC15169 |
| 87 | 85.1 | – | – | inactive | pros (prospero) | DRSC17032 |
| 126 | 219 | – | – | inactive | pros (prospero) | DRSC22612 |
| 76.5 | 81 | – | – | inactive | Spn42Dc (Serpin 42Dc) | DRSC05010 |
| 111 | 125 | – | – | inactive | CG17134 | DRSC02583 |
| 75.9 | 128 | 108 | 104 | inactive | zip (zipper) | DRSC04725 |
| 119 | 225 | – | – | inactive | zip (zipper) | DRSC22489 |
| 165 | 93.7 | – | – | inactive | Su(var)3-3 (Suppressor of variegation 3-3) | DRSC10250 |
| 161 | 152 | – | – | inactive | Ire1 (Inositol-requiring enzyme-1) | DRSC15606 |
| 150 | 130 | – | – | inactive | TfIIFbeta (Transcription factor TFIIFbeta) | DRSC16884 |
| 101 | 70.2 | – | – | inactive | TfIIFbeta (Transcription factor TFIIFbeta) | DRSC21447 |
| 138 | 163 | – | – | inactive | Mal-B2 (Maltase B2) | DRSC02417 |
| 203 | 99.2 | – | – | inactive | CG3123 | DRSC00570 |
| 97.6 | 93.7 | – | – | inactive | CG15210 | DRSC19656 |
| 191 | 192 | – | – | inactive | CG7685 | DRSC16285 |
| 55.8 | 81.9 | – | – | active | Hex-t2 (Hexokinase testis 2) | DRSC22517 |
| 68.5 | 119 | – | – | active | Vps37B (Vacuolar protein sorting 37B) | DRSC12165 |
| 124 | 192 | – | – | inactive | CG7706 | DRSC16295 |
| 69.6 | 55.8 | – | – | active | Rrp6 | DRSC16223 |
| 129 | 117 | – | – | inactive | Cpr65Av (Cuticular protein 65Av) | DRSC09727 |
| 102 | 88.8 | – | – | inactive | jp (junctophilin) | DRSC02213 |
| 210 | 180 | – | – | inactive | jp (junctophilin) | DRSC02744 |
| 127 | 158 | – | – | inactive | CG11145 | DRSC06049 |
| 138 | 96 | – | – | inactive | Cnb (Centrobin) | DRSC08569 |
| – | – | – | – | active | CG42673 | DRSC08991 |
| 60.5 | 102 | – | – | inactive | CG42673 | DRSC10177 |
| 58.3 | 105 | – | – | inactive | CG42673 | DRSC10264 |
| 104 | 98.9 | – | – | inactive | CG42673 | DRSC10353 |
| 94.3 | 81.2 | – | – | inactive | CG42673 | DRSC10354 |
| 127 | 199 | – | – | inactive | CG34276 | DRSC15811 |
| 186 | 83.4 | – | – | inactive | beat-Va (beaten path Va) | DRSC14192 |
| 91.6 | 136 | – | – | inactive | brv3 (brivido-3) | DRSC18657 |
| 107 | 88.8 | – | – | inactive | CG33791 + CG18170 | DRSC08523 |
| 106 | 135 | – | – | inactive | CG33791 + CG18170 | DRSC08601 |
